{"source": "paper PMC7725820", "about": "“Heme biosynthesis depends on previously unrecognized acquisition of iron-sulfur cofactors in human amino-levulinic acid dehydratase” (Nature Communications, 2020)", "molecular_target": "T1, C-terminally FLAG/MYC-tagged wild-type ALAD (human) (UniProt P13716)", "T1 sequence": "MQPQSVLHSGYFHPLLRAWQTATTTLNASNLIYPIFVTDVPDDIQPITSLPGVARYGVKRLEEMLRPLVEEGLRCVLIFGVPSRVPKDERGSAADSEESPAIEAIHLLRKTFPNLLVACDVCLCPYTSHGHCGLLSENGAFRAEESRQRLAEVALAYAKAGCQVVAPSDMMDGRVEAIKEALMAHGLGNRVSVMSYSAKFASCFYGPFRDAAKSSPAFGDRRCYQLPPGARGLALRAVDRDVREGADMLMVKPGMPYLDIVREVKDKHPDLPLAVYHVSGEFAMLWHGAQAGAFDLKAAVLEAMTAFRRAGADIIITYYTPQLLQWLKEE", "experiment": "co-IP; whole-cell lysates of HeLa cells transfected with FLAG/MYC-tagged ALAD, anti-FLAG M2 affinity gel, 4 °C overnight, acidic elution (Tris-glycine, pH 2.8), Western blot", "note": "No constants are given. Whether binding was seen depends on the method and setting. Binding seen in cells or lysates may run through a third protein. Sequences can lack the tags named with a protein."}
{"substance": "mitochondrial HSC20 (M-HSC20) (human (endogenous in HeLa))", "values": [{"measurement": "binding", "value": "no binding"}]}
